From US10633386B2, “BET protein degraders” (THE REGENTS OF THE UNIVERSITY OF MICHIGAN, priority 2016, dated 2020)
For at least one compound, name, drawing or mass did not settle the structure.

System: TNBC cell lines
Assay: Combination apoptosis induction (immunoblotting and/or Annexin-PI staining)
Type: cell-based
Conditions: TNBC cell lines (FIG. 14)
Protocol: Immunoblotting and/or Annexin-PI staining confirmed that BM-1197 (250 nM), ABT-263 (250 nM), and A-1155463 (250 nM) potentiated Cpd. No. 4-induced apoptosis (50 nM) in MDA-MB-468 (FIG. 14) and other TNBC cell lines (data not shown). Synergistic induction of apoptosis by Cpd. […] No. 4-induced apoptosis in these cell lines. […] A with either BM-1197 (FIGS. 15 and 16) or ABT-263 (data not shown). […] No. 4 and BM-1197 was also detected in additional TNBC cell lines responsive to Cpd. No. 4-induced apoptosis (BT-20 and MDA-MB-157) (data not shown), further supporting that BCL-XL inhibitors potentiate Cpd. No. 4-induced apoptosis in TNBC.

`CC1(C)CCC(CN2CCN(c3ccc(C(=O)NS(=O)(=O)c4ccc(NCC5CCOCC5)c([N+](=O)[O-])c4)c(Oc4cnc5[nH]ccc5c4)c3)CC2)=C(c2ccc(Cl)cc2)C1` [ABT-199, venetoclax] was tested, and the “synergistic induction of apoptosis by Cpd. No. 4 in combination with ABT-199” value was “only observed in MDA-MB-468”.
